Literature values as cited in patent US20240423923A1, “EXTRACELLULAR VESICLES FROM MICROALGAE, THEIR BIODISTRIBUTION UPON ADMINISTRATION, AND USES” (AGS THERAPEUTICS SAS, priority 2022, published 2024).
For at least one compound, name, drawing or mass did not settle the structure.

Details: single dose; frontal cortex; within 24 h, persistent 1 month later; cited from earlier work

CN(C)CCc1c[nH]c2cccc(OP(=O)(O)O)c12 [psilocybin]
increase in spine size and density: approximately 10%
